{
  "sequences": {"note": "Chains of the proteins cited; added tags and fusions are not shown.", "UniProt Q0JBA9, entry or part of it": "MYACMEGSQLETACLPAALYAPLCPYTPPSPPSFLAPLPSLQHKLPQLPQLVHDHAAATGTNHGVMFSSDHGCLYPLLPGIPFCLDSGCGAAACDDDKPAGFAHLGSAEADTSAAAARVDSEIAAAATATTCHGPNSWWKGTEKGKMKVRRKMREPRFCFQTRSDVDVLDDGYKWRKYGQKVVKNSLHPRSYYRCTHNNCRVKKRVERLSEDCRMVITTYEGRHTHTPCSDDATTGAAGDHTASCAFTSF"},
  "source": "paper PMC7819943",
  "about": "“Rice protein-binding microarrays: a tool to detect cis-acting elements near promoter regions in rice”",
  "note": "Some of the results follow.",
  "data": [
    {"molecular_target": "OsWRKY34 (Oryza sativa, UniProt Q0JBA9 1-250)", "assay": "protein-binding microarray (RPBM); PBS, 2% BSA, 51.3 ng/ul salmon testes DNA, 50 uM zinc acetate, 200 nM TF, 25 C, 1 h; high values mean tight binding", "conditions": "protein: recombinant; tags: N-terminal polyhistidine and DsRed monomer fusion (pET32a); label: CyDye5-dUTP incorporated in the synthesized complementary strand; 3' TTTTT single-stranded linker to array surface; dsDNA, one strand shown", "summary_of_the_method": "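For the binding signal, per-feature fluorescence intensity was read in arbitrary units on an Axon 4000B scanner. Before scanning, a 2% BSA-blocked custom Agilent array made double-stranded with Cy5-dUTP was washed after 1 h at 25 °C with 200 nM protein and 50 µM zinc acetate. The proteins were Ni–NTA-purified transcription factors with N-terminal polyhistidine and DsRed fusions, expressed in E. coli BL21-CodonPlus.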", "values": [
      {"sequence": "CCACCGATTCCTCTCCACCGCTCTTTCCGCCCGCGCGATGCGGAGTCACCTAGTGCAG", "binding signal": "10600 fluorescence intensity (a.u.)"},
      {"sequence": "GCCGCCGCCGCCGCCGCACCGCCACCGCTCTCTCCCGCCGCGGAGTCACCTAGTGCAG", "binding signal": "8940 fluorescence intensity (a.u.)"},
      {"sequence": "TCTAAGATATTATTTTTACGTGTCGTCCCATTACCGATATCGGAGTCACCTAGTGCAG", "binding signal": "9500 fluorescence intensity (a.u.)"},
      {"sequence": "GTTGCGTGGACATGGTGGTGGGTAGTGATGGTGGCAAACGCGGAGTCACCTAGTGCAG", "binding signal": "11400 fluorescence intensity (a.u.)"},
      {"sequence": "CAGCTCATCAAGGTCAAATCAAATCATTCACGTCGTAACGCGGAGTCACCTAGTGCAG", "binding signal": "8100 fluorescence intensity (a.u.)"},
      {"sequence": "TTGTGGAGTGTTCTTTCTGTAGTTGTTGCCTGCACTACACCGGAGTCACCTAGTGCAG", "binding signal": "13000 fluorescence intensity (a.u.)"},
      {"sequence": "CCCCTGTCTCTGTCTCTGTCTCTGCCGTTTGTATAGTAGCCGGAGTCACCTAGTGCAG", "binding signal": "9300 fluorescence intensity (a.u.)"},
      {"sequence": "TCTCTCTCGAGTTCGCCTCATAGCCAACCACCCTATAAAACGGAGTCACCTAGTGCAG", "binding signal": "8650 fluorescence intensity (a.u.)"},
      {"sequence": "AGGGGATACTTTGTTTTGATTGGATTTGGAACTCGATGACCGGAGTCACCTAGTGCAG", "binding signal": "8130 fluorescence intensity (a.u.)"},
      {"sequence": "ACCAAATAGATTTCCTGCACTGGAATCATTCTGCACAATACGGAGTCACCTAGTGCAG", "binding signal": "8140 fluorescence intensity (a.u.)"},
      {"sequence": "TTGCCACCGATACCCCTACATGCCTCTCCTCTACCATTTCCGGAGTCACCTAGTGCAG", "binding signal": "8210 fluorescence intensity (a.u.)"},
      {"sequence": "ATTTTATTTGTGTTGTGATTTCACTTTCCCTGTTTTTGTGCGGAGTCACCTAGTGCAG", "binding signal": "10800 fluorescence intensity (a.u.)"},
      {"sequence": "GTGGTTTGTGATGAAATGTAGTAATGTTCTTGTAATTTGTCGGAGTCACCTAGTGCAG", "binding signal": "8370 fluorescence intensity (a.u.)"},
      {"sequence": "GGCCCAGTTTAGTCTAGAACTTTTCTTTTTTCTTTTTTTTCGGAGTCACCTAGTGCAG", "binding signal": "11200 fluorescence intensity (a.u.)"},
      {"sequence": "TTTCCGTTTGCACTTTGCAGCCAGCACAGCCGACGGCGATCGGAGTCACCTAGTGCAG", "binding signal": "8980 fluorescence intensity (a.u.)"},
      {"sequence": "ATACATCTTCCCAAAACTTTTTTAATTTTTTTCAAAACTACGGAGTCACCTAGTGCAG", "binding signal": "9280 fluorescence intensity (a.u.)"},
      {"sequence": "GATTTGGGTAATTTATATAGATGCAATCCACTGTTTGATTCGGAGTCACCTAGTGCAG", "binding signal": "8560 fluorescence intensity (a.u.)"},
      {"sequence": "TCCACTTTCTTTAGCCGGTCAAGGGGTTCAAGCAGCATCTCGGAGTCACCTAGTGCAG", "binding signal": "8880 fluorescence intensity (a.u.)"},
      {"sequence": "CCGCTATCTCCCGCTATAGCTGTTTGGGAAGGGTTCTAGCCGGAGTCACCTAGTGCAG", "binding signal": "8110 fluorescence intensity (a.u.)"},
      {"sequence": "TCCTTCAGTGACACAGTTTCCATATATCCCCATCATGCAACGGAGTCACCTAGTGCAG", "binding signal": "9550 fluorescence intensity (a.u.)"},
      {"sequence": "CCCACCACCACCACCCAACCCCACCGCGCGCGCGCTCTCCCGGAGTCACCTAGTGCAG", "binding signal": "8380 fluorescence intensity (a.u.)"},
      {"sequence": "ACTTTTTCCGAACCAAAATGGACTTCTTCCTTACGGTTACCGGAGTCACCTAGTGCAG", "binding signal": "8390 fluorescence intensity (a.u.)"},
      {"sequence": "AGCCACACTTCGCCACCGTTTCTTTTTTTTCAAACGTGACCGGAGTCACCTAGTGCAG", "binding signal": "10800 fluorescence intensity (a.u.)"},
      {"sequence": "TAAAAATCGTTTCAGTTGCTGGTGCTTTATCAAAGTTTTTCGGAGTCACCTAGTGCAG", "binding signal": "12000 fluorescence intensity (a.u.)"},
      {"sequence": "ACCAATTGTTTTTTGTATTGATTATGTTATTGACTGATACCGGAGTCACCTAGTGCAG", "binding signal": "9430 fluorescence intensity (a.u.)"},
      {"sequence": "GATATGTAGCTCGCTGTTCTTCTCTCTCTTCATTTATCTGCGGAGTCACCTAGTGCAG", "binding signal": "10900 fluorescence intensity (a.u.)"},
      {"sequence": "CAACCCTGACGTCACGTAAGCTTTTGCCAATTCCGCCAACCGGAGTCACCTAGTGCAG", "binding signal": "8110 fluorescence intensity (a.u.)"},
      {"sequence": "CGCCGTCGTTCGTCCAGCTGCTTCCGCCGCATCCATCCTGCGGAGTCACCTAGTGCAG", "binding signal": "10500 fluorescence intensity (a.u.)"},
      {"sequence": "GATGGAGATATTGTGTGCGTAAAGGATGCGGAGTTGATTTCGGAGTCACCTAGTGCAG", "binding signal": "8110 fluorescence intensity (a.u.)"},
      {"sequence": "CCTGGGCTGCCTGTTCATCATCACGCGTTTGATGTTCACTCGGAGTCACCTAGTGCAG", "binding signal": "9370 fluorescence intensity (a.u.)"},
      {"sequence": "CAGCCACCTCCTCCTCTTCTTCCCCAACTTTCTGCTTGATCGGAGTCACCTAGTGCAG", "binding signal": "9300 fluorescence intensity (a.u.)"},
      {"sequence": "AGCCACCTCCCACCACGCCTTGGCCTTTCCATTACCTACGCGGAGTCACCTAGTGCAG", "binding signal": "10200 fluorescence intensity (a.u.)"},
      {"sequence": "ACTCCGTTTTTCGTAAATACTGTTTAGGGTTGGGAACTGGCGGAGTCACCTAGTGCAG", "binding signal": "8170 fluorescence intensity (a.u.)"},
      {"sequence": "TCCATTCCTTCTGGCATTGGCAACATTCTTCCCCAGATCACGGAGTCACCTAGTGCAG", "binding signal": "8530 fluorescence intensity (a.u.)"},
      {"sequence": "AATATAATGAAATTTCACAGAGGAGGGACTGGGCTTTATACGGAGTCACCTAGTGCAG", "binding signal": "9910 fluorescence intensity (a.u.)"},
      {"sequence": "TTCCCCATCCCCAGCTGCACCGACGCCACCGCCTGTATGTCGGAGTCACCTAGTGCAG", "binding signal": "9360 fluorescence intensity (a.u.)"},
      {"sequence": "ATGTCTCCCAAGTATTTTACTCTGTTCGTCCCATTTTAAGCGGAGTCACCTAGTGCAG", "binding signal": "10400 fluorescence intensity (a.u.)"},
      {"sequence": "ACTTTCAACTTTTTTTCTAAACTCTTAACTTTCTTCAAACCGGAGTCACCTAGTGCAG", "binding signal": "9100 fluorescence intensity (a.u.)"},
      {"sequence": "GTTTCCAGGCGGAATCTGTAATTTGTTTTGTTGTTAGTCTCGGAGTCACCTAGTGCAG", "binding signal": "10600 fluorescence intensity (a.u.)"},
      {"sequence": "TTACACCCCACTTACACATCACTTACATATGTAATTAATACGGAGTCACCTAGTGCAG", "binding signal": "8040 fluorescence intensity (a.u.)"},
      {"sequence": "TTACTACTGTCTGCTCCTAGGGCTGTTGTTTTTCCTTGTTCGGAGTCACCTAGTGCAG", "binding signal": "10600 fluorescence intensity (a.u.)"},
      {"sequence": "TTTTCATCGTTCATTTCCCTACAGCAAATGTTTGGCAGCCCGGAGTCACCTAGTGCAG", "binding signal": "8060 fluorescence intensity (a.u.)"},
      {"sequence": "CATGTGTACGATTAACATCTATCTATTATATTATATAATACGGAGTCACCTAGTGCAG", "binding signal": "8860 fluorescence intensity (a.u.)"},
      {"sequence": "AGCGCTACTCCACATCTGTTTGCTCGTGCTCTCCGGATCTCGGAGTCACCTAGTGCAG", "binding signal": "8550 fluorescence intensity (a.u.)"},
      {"sequence": "TTTTCCTTGTTCTTATCACACGTCTTTTGACATATGGCGCCGGAGTCACCTAGTGCAG", "binding signal": "9800 fluorescence intensity (a.u.)"},
      {"sequence": "CATTTGTGTAGTTTATAAGAGTTGTTCGCACATGTTTAGTCGGAGTCACCTAGTGCAG", "binding signal": "10800 fluorescence intensity (a.u.)"},
      {"sequence": "ATTTGCTCAAACGATGACCTGATATTCTAGTTACCACTTACGGAGTCACCTAGTGCAG", "binding signal": "8690 fluorescence intensity (a.u.)"},
      {"sequence": "GCACTGCTTCCCTATCCAACAGTCTCTCGATTACTTCCCTCGGAGTCACCTAGTGCAG", "binding signal": "8070 fluorescence intensity (a.u.)"},
      {"sequence": "CCGCCTGCCACCTCCTCGCCGCCCGTCGCGTCGACGCCTGCGGAGTCACCTAGTGCAG", "binding signal": "8440 fluorescence intensity (a.u.)"},
      {"sequence": "CCTCGCCGTCGCCGGTCCTCGTCTCCTCCTCTATCTATATCGGAGTCACCTAGTGCAG", "binding signal": "8600 fluorescence intensity (a.u.)"},
      {"sequence": "TGCTGTCGATGTGCTTATCTTTCGATTTATTCCTCTCATCCGGAGTCACCTAGTGCAG", "binding signal": "9850 fluorescence intensity (a.u.)"},
      {"sequence": "GAATCTTAGTGGTATAATCCAGCTGTTGACTTTGTTAGGGCGGAGTCACCTAGTGCAG", "binding signal": "12800 fluorescence intensity (a.u.)"},
      {"sequence": "CCATGGTGATGCACTCGTCACGCTCTAGCGGAAGAGATCCCGGAGTCACCTAGTGCAG", "binding signal": "8200 fluorescence intensity (a.u.)"},
      {"sequence": "ATGATACTAGCGGAGCTCACTACTTACTATTAGTCAATGTCGGAGTCACCTAGTGCAG", "binding signal": "8330 fluorescence intensity (a.u.)"}
    ]}
  ]
}
